US8569282B2

Chains of the proteins cited; added tags and fusions are not shown. Residues count along the entry.
UniProt P41597, 1-360 isoform 2: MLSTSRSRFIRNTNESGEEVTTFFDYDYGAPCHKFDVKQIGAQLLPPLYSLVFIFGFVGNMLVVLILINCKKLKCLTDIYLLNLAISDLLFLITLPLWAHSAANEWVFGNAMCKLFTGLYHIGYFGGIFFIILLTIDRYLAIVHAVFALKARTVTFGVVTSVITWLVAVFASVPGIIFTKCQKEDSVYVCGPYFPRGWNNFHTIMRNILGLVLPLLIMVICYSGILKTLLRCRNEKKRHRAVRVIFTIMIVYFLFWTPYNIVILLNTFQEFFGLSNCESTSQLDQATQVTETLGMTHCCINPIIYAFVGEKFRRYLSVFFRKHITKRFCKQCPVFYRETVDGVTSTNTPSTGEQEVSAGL

Target: CCR2b (Homo sapiens, UniProt P41597)
Experiment: AequoScreen CCR2b Ca++ flux assay (antagonist mode)
Details: read-out: IC50 (μM) Ca^++ flux; AequoScreen CCR2b (FAST-060A) cells; inhibition of reference agonist MCP-1; tested form: TFA salt

Compound | IC50
CCn1c(=O)oc2cc(CN3CCC(COC)(C(=O)N4CCc5ncc(C(F)(F)F)cc5C4)C3)ccc21 (centres unmarked) | < 0.2 µM
COCC1(C(=O)N2CCc3ncc(C(F)(F)F)cc3C2)CCN(Cc2cc3oc(=O)n(C)c3cc2Br)C1 (centres unmarked) | < 0.2 µM

The match of structure and compound is tentative.
